# Laboratory results published in PubChem BioAssay AID2685 (National Center for Advancing Translational Sciences (NCATS), 2010).
# This is one part of the list. The main result of the screen is listed elsewhere. These columns were measured beside it and carry no call. The list favours compounds with an active or inconclusive main result. Potencies come from curve fits of mixed quality, noted in brackets.
# Test: qHTS Assay for Lipid Storage Modulators in Drosophila S3 Cells;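 on cell number change: cells counted by Cell Tracker Red CMTPX staining in the red channel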
# Details: BODIPY lipid droplet fluorescence, 18-24 h; for cell number change: measured here: cell count max response, cells fed with added oleic acid
# Procedure, shortened: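 Drosophila S3 cells got compounds at several concentrations plus oleic acid (400 uM solution). Laser-scanning cytometry with 488 nm excitation read lipid droplets at 500-530 nm and cells at 575-640 nm. Percent activity was relative to 20 uM Triacsin C.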
# [1] = measured here: lipid fluorescence (Fed channel) AC50, cells fed with added oleic acid
# [2] = measured here: cell number channel AC50, cells fed with added oleic acid
Compound,cell number change [%],AC50 [1],AC50 [2]
Cc1[nH]c(-c2ccc(F)cc2)cc1C(=O)N1CCN(c2ccccc2F)CC1,12.8,"29100 nM [rising, single point]",–
CN(C)N1C(N)=C(C#N)C(c2ccc3c(c2)OCO3)C2=C1CC(C)(C)CC2=O (centres undefined),-15.6,"651 nM [rising, partial curve, poor fit]","731 nM [rising, partial curve, poor fit]"
CN(C)S(=O)(=O)c1cccc(C(=O)OCC(=O)NC2CCCc3ccccc32)c1 (centres undefined),23.1,"11600 nM [rising, partial curve, poor fit]",–
CCN(Cc1ccccc1)C(=O)c1c(-c2ccccc2Cl)noc1C,-21.4,"29100 nM [falling, single point]",–
Cc1ccc(-n2nnnc2-c2cnc(N3CCCC3)nc2C(F)(F)F)cc1,-31,"1460 nM [rising, full curve]",–
Cc1ccc(S(=O)(=O)N(C)C)cc1NC(=O)COC(=O)CNC(=O)C12CC3CC(CC(C3)C1)C2,3.21,–,–
CCN(Cc1ccc(C#CCCO)cc1)CC1CCCN(CCc2cccc(F)c2)C1 (centres undefined),-11.8,"291 nM [falling, full curve, poor fit]",–
CCOC(=O)c1[nH]c2c(c1C)C(=O)CC(c1ccc(OCC)c(OC)c1)C2 (centres undefined),52.2,"580 nM [rising, full curve]",–
CC(=O)NCCNc1ccc([N+](=O)[O-])cn1,-47.4,–,"32600 nM [falling, single point]"
Cc1cccc(C)c1NC(=O)CNC(=O)c1ccc2c(c1)OCCO2,6.53,"4110 nM [rising, full curve, poor fit]","731 nM [rising, single point]"
CCc1ccc2c(CN(C)Cc3ccc(OC(F)F)c(OC)c3)cc(=O)oc2c1,-2.63,–,–
CCC(=O)N1CCc2cc(S(=O)(=O)CCC(=O)Nc3ccc(C)cn3)ccc21,-10.8,"580 nM [rising, single point]","651 nM [rising, single point]"
COc1ccc(N(C(C)C(=O)Nc2ccc(S(=O)(=O)N3CCCCC3)cc2)S(C)(=O)=O)cc1 (centres undefined),17.9,–,–
O=C(CSC(=S)N1CCOCC1)c1cc(Br)cc(Br)c1O,18.9,"206 nM [rising, single point]",–
O=C(Nc1ccc2c(c1)OCCO2)c1ccc(Br)o1,-21.4,"146 nM [falling, full curve, poor fit]",–
CCNc1nnc(-c2ccncc2)s1,-18.7,–,–
COc1cccc(CNC(=O)Cn2cc3c(n2)CCCCC3)c1,-0.0044,–,–
COCCN1Cc2cccc(C(=O)N3CCN(c4cc(C)ccc4C)CC3)c2C1=O,24.3,"731 nM [rising, single point]",–
O=C(NC1CCCCC1)C(c1ccccc1)N(C(=O)c1csnn1)C1CCCC1 (centres undefined),14.6,"130 nM [falling, single point]",–

# A section from the list above, as a working copy:
Compound,cell number change [%],AC50 [1],AC50 [2]
CN(C)S(=O)(=O)c1cccc(C(=O)OCC(=O)NC2CCCc3ccccc32)c1 (centres undefined),23.1,"11600 nM [rising, partial curve, poor fit]",–
CCN(Cc1ccccc1)C(=O)c1c(-c2ccccc2Cl)noc1C,-21.4,"29100 nM [falling, single point]",–

# Remaining list, next part:

Compound,cell number change [%],AC50 [1],AC50 [2]
COc1ccc(S(=O)(=O)N(CCCN2CCOCC2)Cc2cccc3ccccc23)cc1,17.1,–,–
Cc1noc(C)c1COC(=O)c1cc2ccccc2cc1O,2.7,"651 nM [falling, single point]",–
CC(NC(=O)Cc1c(F)cccc1Cl)C1CCCO1 (centres undefined),-102,"25900 nM [falling, single point]","29100 nM [falling, single point]"
CCCc1nnc(NC(=O)CCS(=O)(=O)Cc2ccccc2)s1,10,"1160 nM [rising, single point]",–
C=CCOc1ccc(CNc2ccc3[nH]c(=O)[nH]c3c2)cc1OC,-24.9,"5170 nM [falling, full curve]",–
C/C(=N\NC(=O)c1c(C)nc2ccccn12)c1ccc(O)cc1O,–,"651 nM [falling, full curve]",–
COc1ccc(-n2c(O)c(/C=N/NS(=O)(=O)c3cccc([N+](=O)[O-])c3)c3ccccc3c2=O)cc1OC,–,"23100 nM [falling, partial curve]",–
CCC(C)(C)C1CCc2[nH]nc(C(=O)NCCN3CCOCC3)c2C1 (centres undefined),9.7,"5.17 nM [rising, full curve, poor fit]",–
O=C(CON=C1c2ccccc2-c2ccccc21)NC12CC3CC(CC(C3)C1)C2,10.5,"14600 nM [falling, single point]",–
COc1ccccc1NC(=O)C(=O)NCCCN1CCCC1=O,20,–,–
Clc1ccc(SCc2cc(N3CCOCC3)nc(-c3ccccn3)n2)cc1,7.01,"116 nM [rising, full curve, poor fit]","4610 nM [rising, partial curve, poor fit]"
NC(=O)Nc1ccc(C(=O)OCC(=O)N(Cc2ccccc2)C2CCS(=O)(=O)C2)cc1 (centres undefined),-5.54,"731 nM [falling, single point]","73.1 nM [falling, full curve, poor fit]"
O=C(O)c1ccc2c(c1)C(=O)/C(=C\c1ccco1)C2=O,1.56,"6510 nM [falling, single point]","3660 nM [falling, partial curve]"
CC(C)(C)NC(=O)/C(=C\c1ccccc1F)NC(=O)c1ccc([N+](=O)[O-])cc1,14.9,"103 nM [rising, full curve, poor fit]",–
CCOc1ccccc1-n1nnnc1SCc1nc2ccccc2s1,-9.51,–,–
O=C(Nc1nnc(Cc2ccc(Cl)cc2)s1)c1cccs1,-74.3,"29100 nM [falling, single point]","29100 nM [falling, single point]"
O=C(c1ccco1)N1CCN(Cc2cccc(F)c2)CC1,12.9,"25900 nM [falling, single point]",–
Cn1c(=O)c2c(nc(CN3CCN(C(=O)c4ccco4)CC3)n2CC(N)=O)n(C)c1=O,30,–,"461 nM [rising, full curve, poor fit]"
CCCNC(=O)COC(=O)c1ccccc1C(=O)c1ccc(Cl)c([N+](=O)[O-])c1,-1.04,"580 nM [falling, single point]",–
